Data published in PubChem BioAssay AID1671190 (National Center for Advancing Translational Sciences (NCATS), 2021).
Hit rate of the full screen: of about 580,000 compounds, about 6,100 (1.1%) were called active. This list was built around the results that the source calls inconclusive (neither active nor inactive); the mix of calls is not that of the screen. Calls follow the shape of the dose curve; as a rule, active = well fitted inhibition curve with a large enough effect; inconclusive = small, poorly fitted or top-dose-only effect, or another doubt; inactive = no such curve, though single readings can be large or run the other way. Where the call is inconclusive, the potency comes from a doubtful curve fit.

Sequences of proteins named here, by UniProt entry; tags and fusion partners are left off. A change or cut given only in a name is not applied to a line headed by its entry.
UniProt P18054: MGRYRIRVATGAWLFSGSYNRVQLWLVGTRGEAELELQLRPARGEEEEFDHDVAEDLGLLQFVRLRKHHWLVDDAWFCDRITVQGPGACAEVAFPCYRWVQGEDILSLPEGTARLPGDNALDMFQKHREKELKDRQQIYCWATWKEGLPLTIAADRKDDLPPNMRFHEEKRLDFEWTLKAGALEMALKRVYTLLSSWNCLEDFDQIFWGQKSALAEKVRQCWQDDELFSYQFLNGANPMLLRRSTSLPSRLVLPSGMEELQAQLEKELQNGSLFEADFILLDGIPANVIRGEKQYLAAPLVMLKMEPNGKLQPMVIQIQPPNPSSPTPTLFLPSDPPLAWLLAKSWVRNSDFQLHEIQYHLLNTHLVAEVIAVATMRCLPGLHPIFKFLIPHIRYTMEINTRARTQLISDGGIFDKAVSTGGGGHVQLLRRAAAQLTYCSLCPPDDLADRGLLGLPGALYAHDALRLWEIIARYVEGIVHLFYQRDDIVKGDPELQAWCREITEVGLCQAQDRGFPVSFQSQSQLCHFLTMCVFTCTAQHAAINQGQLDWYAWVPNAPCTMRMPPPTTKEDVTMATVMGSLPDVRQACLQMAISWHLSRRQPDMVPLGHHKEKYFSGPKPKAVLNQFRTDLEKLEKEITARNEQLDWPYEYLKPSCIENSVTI

These compounds were tested against Polyunsaturated fatty acid lipoxygenase ALOX12 (Homo sapiens) (UniProt P18054) (assay: Primary qHTS assay for inhibitors of human arachidonate 12S-lipoxygenase (ALOX12): Round 2). Conditions: purified 12hLO, xylenol orange hydroperoxide absorbance; series mostly up to 108 µM.
In short: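 Hydroperoxide product was detected by ferrous iron/xylenol orange as the 573 to 405 nm absorbance ratio. Arachidonic acid at 40 uM (final) was turned over for 30 min at room temperature by 150 nM human 12hLO, pH 7.0 Hepes buffer, after 15 min compound preincubation.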
Potency is read from the fitted curve at half-maximal effect.

| SMILES | Potency |
| --- | --- |
| O=C(CCN1C(=O)/C(=C/c2ccccc2F)SC1=S)NCCCn1ccnc1 | inactive |
| CN(C)C(=O)c1ccc(NC(=O)COC(=O)C2=COCCO2)cc1 | inactive |
| Cc1nn(-c2ccccc2)c2c1N(CCCC(=O)NCc1ccc(Cl)cc1)C(=O)CS2 | inconclusive: 100 µM [inhibitor, partial curve, poor fit] |
| O=C(NCc1ccco1)c1c[nH]c2ccc(S(=O)(=O)Nc3ccc(F)cc3F)cc2c1=O | inconclusive: 50.1 µM [inhibitor, partial curve, poor fit] |
| COc1cc(CNC2CCCC2)cc(Cl)c1OCc1ccccc1Cl | inconclusive: 44.7 µM [inhibitor, partial curve, poor fit] |
| CCOc1ccc2c(c1)cc(C(=O)Nc1ccccc1OC)n2C | inactive |
| O=C(CCC[C@@H]1[C@H]2CCCN3CCC[C@@H](CN1S(=O)(=O)c1cccc(F)c1)[C@@H]23)N1CCOCC1 | inconclusive: 0.794 µM [inhibitor, full curve, poor fit] |
| Cc1nc2ccccc2c(=O)n1/N=C/c1ccc2ccccc2c1O | inactive |
| COc1ccc(-c2nnc(SCC(=O)NCc3ccccc3)nc2-c2ccc(OC)c(OC)c2)cc1OC | inconclusive: 50.1 µM [inhibitor, partial curve, poor fit] |
| CC(=O)N1CCC2(CC1)CCN(Cc1cccs1)c1ccccc1O2 | inconclusive: 44.7 µM [inhibitor, partial curve] |
| O=C1CC(c2ccco2)CC(O)=C1C=Nc1cc(Cl)ccc1O (stereo unspecified) | inactive |
| COc1ccc2[nH]c(C(=O)NCc3ccc(C)o3)cc2c1 | inconclusive: 112 µM [inhibitor, single point] |
| CC(C)(C)c1ccc(S(=O)(=O)c2cnc(SCC(=O)Nc3ccc(F)c(Cl)c3)[nH]c2=O)cc1 | inconclusive: 126 µM [inhibitor, partial curve, poor fit] |
| CCN(C(=O)CSc1nnc(-c2ccco2)n1Cc1ccccc1)C1CCS(=O)(=O)C1 (stereo unspecified) | inconclusive: 112 µM [inhibitor, partial curve, poor fit] |
| CCSc1c(C(=O)NC)ccc2c1C(=O)c1ccccc1C2=O | inactive |
| CC1(c2ccccc2)N(Cc2ccccc2F)C(=O)OC12CCN(Cc1ccc(C#N)cc1)CC2 (stereo unspecified) | inconclusive: 22.4 µM [inhibitor, full curve] |
| Cc1ccc(C(=O)c2c3ccc([N+](=O)[O-])cc3[n+]([O-])n2CCCN)cc1 | inconclusive: 5.62 µM [inhibitor, full curve] |
| Cc1c(NC(C)C)c(=O)n(-c2ccccc2)n1C | inconclusive: 3.55 µM [inhibitor, full curve, poor fit] |
| COC(=O)[C@@H]1Cc2ncn(Cc3ccc(Cl)cc3)c2CN1S(=O)(=O)c1ccc(C#N)cc1 | inconclusive: 10 µM [inhibitor, partial curve] |
| Cc1ccc(-c2nn(C)c(=O)c3ccccc23)cc1CO | inactive |
| Cc1ccc(-c2nc3ccc(Br)cn3c2CC(C)(C)C)cc1 | inconclusive: 0.501 µM [inhibitor, full curve, poor fit] |

A stretch of the results above, as a working copy:

| SMILES | Potency |
| --- | --- |
| CCN(C(=O)CSc1nnc(-c2ccco2)n1Cc1ccccc1)C1CCS(=O)(=O)C1 (stereo unspecified) | inconclusive: 112 µM [inhibitor, partial curve, poor fit] |
| CCSc1c(C(=O)NC)ccc2c1C(=O)c1ccccc1C2=O | inactive |
| CC1(c2ccccc2)N(Cc2ccccc2F)C(=O)OC12CCN(Cc1ccc(C#N)cc1)CC2 (stereo unspecified) | inconclusive: 22.4 µM [inhibitor, full curve] |
| Cc1ccc(C(=O)c2c3ccc([N+](=O)[O-])cc3[n+]([O-])n2CCCN)cc1 | inconclusive: 5.62 µM [inhibitor, full curve] |

The results go on:

| SMILES | Potency |
| --- | --- |
| Cc1ccn2c(=O)nc(SCC(=O)c3ccc(Cl)cc3)nc2c1 | inconclusive: 50.1 µM [inhibitor, partial curve, poor fit] |
| O=[N+]([O-])c1ccccc1N=Nc1ccc(O)cc1 | inconclusive: 112 µM [inhibitor, single point] |
| Cc1nc(C)c(C(=O)O)c(-c2ccsc2)c1C(=O)O | inconclusive: 28.2 µM [inhibitor, single point] |
| COC(=O)c1ccc([C@H]2Nc3ccc(S(=O)(=O)Nc4ccc(C)cc4)cc3[C@H]3C=CC[C@H]32)cc1 | inconclusive: 112 µM [inhibitor, single point] |
| CCOC(=O)c1cc(-c2ccc(F)cc2)n(CC(=O)NCc2ccc(OC)cc2)c1C | inconclusive: 141 µM [inhibitor, partial curve, poor fit] |
| [O-][n+]1c2ccccc2c2n1CCN=C2c1ccc(Cl)cc1 | inactive |
| CSCCC(NC(=O)c1ccccc1)C(=O)NCCc1ccccc1 (stereo unspecified) | inconclusive: 44.7 µM [inhibitor, partial curve, poor fit] |
| COc1cc(C)c(CN2CCC(Cc3ccccc3)CC2)cc1C | inconclusive: 5.01 µM [inhibitor, full curve, poor fit] |
| CCC(=O)N1Cc2ccccc2CC2(CCCCN2CC2CCNC2)C1 (stereo unspecified) | inconclusive: 12.6 µM [inhibitor, full curve, poor fit] |
| CN(C(=O)c1cccc(NC(=O)Cc2ccc(NC(=O)C3CCN(C(=O)c4ccccc4)CC3)cc2)c1)C1CCCCC1 | inconclusive: 31.6 µM [inhibitor, single point] |
| COc1cccc(C(=O)C(=O)N2CCN(C(=O)OCc3ccccc3)CC2)c1 | inconclusive: 112 µM [inhibitor, single point] |
| CN(C)CC(C)(C)CNC(=S)NCCc1ccccc1 | inactive |
| COc1ccc(NC(=O)N2CCN(c3cccc(C(F)(F)F)c3)CC2)cc1 | inactive |
| COc1ccc(-c2cnnc(N/N=C/c3ccc(O)c(O)c3)n2)cc1 | inconclusive: 70.8 µM [inhibitor, partial curve, poor fit] |
| CCN1C(=O)[C@H]2[C@@H](c3ccc(-c4ccc(Cl)c(Cl)c4)cc3)N[C@@](Cc3ccccc3)(C(=O)OC)[C@H]2C1=O | inconclusive: 89.1 µM [inhibitor, partial curve, poor fit] |
| COCCN(C(=O)COC(=O)c1ccccc1Nc1ccccc1)c1c(N)n(Cc2ccccc2)c(=O)[nH]c1=O | inconclusive: 44.7 µM [inhibitor, partial curve, poor fit] |
| CCC(NC(=O)c1[nH]c(C)c(C(C)=O)c1C)c1ccc(Br)cc1 (stereo unspecified) | inconclusive: 50.1 µM [inhibitor, partial curve, poor fit] |
| CN(Cc1ccc(OC(F)(F)F)cc1)C1CCc2ccccc21 (stereo unspecified) | inconclusive: 63.1 µM [inhibitor, full curve] |
| Cc1ccc(-c2nc(-c3ccccc3Br)no2)cc1 | inactive |
| O=C(Nc1ccccc1C(=O)OCC(=O)C12CC3CC(CC(C3)C1)C2)c1ccc([N+](=O)[O-])cc1Cl | inactive |
| Cc1cc(C(F)(F)F)c(C#N)c(SCC#N)n1 | inconclusive: 14.1 µM [inhibitor, partial curve, poor fit] |

| SMILES | Potency |
| --- | --- |
| O=S(=O)(NCc1cn2ccsc2n1)c1ccccc1 | inconclusive: 39.8 µM [inhibitor, single point] |
| O=C1NC(c2ccc(-c3ccccc3[N+](=O)[O-])o2)C(C(=O)c2ccc(Cl)cc2)C(O)(C(F)(F)F)N1 (stereo unspecified) | inconclusive: 56.2 µM [inhibitor, partial curve, poor fit] |
| CCOc1ccc(C(=O)Nc2sc(C)c(CC)c2C#N)cc1 | inconclusive: 39.8 µM [inhibitor, partial curve, poor fit] |
| COc1ccc(/C=C2/SC(=O)N(CC(O)Cn3c4ccccc4c4ccccc43)C2=O)cc1 (stereo unspecified) | inactive |
| Cc1ccc2cccc(S(=O)(=O)Nc3ccc4c(c3)OCO4)c2n1 | inconclusive: 79.4 µM [inhibitor, partial curve, poor fit] |
| CC(C)OCCCNC(=O)c1cccc(CS(C)(=O)=O)c1 | inconclusive: 31.6 µM [inhibitor, partial curve, poor fit] |
| Cc1ccc(-c2nc(Nc3cccc(O)c3)c3ccccc3n2)cc1 | inconclusive: 112 µM [inhibitor, single point] |
| Cc1noc(C)c1C(=O)Nc1sc2c(c1C(N)=O)CCC(C)C2 (stereo unspecified) | inconclusive: 39.8 µM [inhibitor, partial curve, poor fit] |
| COc1ccc(-c2c(NC(=O)c3cccs3)oc3ccc(Cl)cc3c2=O)cc1OC | inactive |
| COc1ccc(N2C(=O)[C@@H]3[C@H](C2=O)[C@H]2c4ccccc4C=CN2[C@@H]3C(=O)Nc2ccccc2)cc1 | inconclusive: 31.6 µM [inhibitor, partial curve] |
| COc1ccc(Cn2c(C3CCN(C(=O)c4ccc5c(c4)OCO5)CC3)n[nH]c2=O)cc1 | inconclusive: 10 µM [inhibitor, full curve] |
| Oc1c(C(c2ccc(Br)cc2)N2CCOCC2)sc2nc(-c3ccco3)nn12 (stereo unspecified) | inconclusive: 89.1 µM [inhibitor, partial curve, poor fit] |
| CCc1ccc(C(=O)c2c(N)c(-c3nc(-c4ccc5c(c4)OCO5)cs3)c3ccccn23)cc1 | inconclusive: 158 µM [inhibitor, single point] |
| Cc1c(-c2cc[n+]([O-])cc2)oc2ccc(Br)cc2c1=O | inconclusive: 56.2 µM [inhibitor, partial curve, poor fit] |
| COc1ccc(NC(=S)NC(NC(=O)c2ccccc2Cl)C(Cl)(Cl)Cl)c([N+](=O)[O-])c1 (stereo unspecified) | inconclusive: 11.2 µM [inhibitor, partial curve, poor fit] |
| Cc1ccc(C)n1C1C(=O)N(C)c2ccc(F)cc21 (stereo unspecified) | inconclusive: 44.7 µM [inhibitor, partial curve, poor fit] |
| CCOc1ccc(NC(=O)CC2C(=O)N(c3ccc(OCC)cc3)C(=S)N2C2CC2)cc1 (stereo unspecified) | inconclusive: 100 µM [inhibitor, partial curve, poor fit] |
| COc1ccc(CCN(C)Cc2ccc(OCc3ccccc3)c(OC)c2)cc1OC | inconclusive: 0.708 µM [inhibitor, full curve, poor fit] |
| O=C1C=C(c2ccccc2)C(c2ccccc2)C1 (stereo unspecified) | inactive |
